Measurements from patent publication US7214714B2, “20-hydroxyeicosatetraenoic acid production inhibitors” (Taisho Pharmaceutical Co. Ltd., priority 2001, dated 2007).
For at least one compound, name, drawing or mass did not settle the structure.

Molecular target: 20-HETE-Producing Enzyme derived from Human Renal Microsome
Assay: Inhibitory action to 20-HETE-producing enzyme derived from human renal microsome
Assay type: biochemical
Settings: human renal microsome fraction, tritium-arachidonic acid substrate, NADPH, 37° C., 1.5 hours, pH 7.4; read-out: IC50 (inhibition of 20-HETE production)
Experimental: Inhibitory Action to 20-HETE-Producing Enzyme derived from Human Renal Microsome
With regard to the compounds listed in the above table, their inhibitory actions to 20-HETE production were tested.
This test was carried out in accordance with a method mentioned in J. Pharmacol. Exp. Ther., volume 268, page 474 (1994).
A solution of the test compound adjusted to 1 μM using DMSO was added to a 50 mM of 3-morpholinopropanesulfonic acid buffer (MOPS) (pH 7.4) containing 5 mM of magnesium chloride and 1 mM of sodium ethylenediaminetetraacetate (EDTA), then human renal microsome fraction (Human Cell Culture Center, Anatomic Gift Foundation), [5,6,8,9,11,12,15]tritium-arachidonic acid and NADPH were added thereto as an enzymatic source, a substrate and a coenzyme, respectively and reaction was carried out at 37° C. for 1.5 hours. Formic acid was added to the reaction solution to stop the reaction and then acetonitrile was added thereto (final concentration: 50%). Amount of 20-HETE produced thereby was measured using a high performance liquid chromatography equipped with a radioactive substance detector having an ODS column (Biosil C18; manufactured by Biorad).
Amount of 20-HETE produced when no compound was added was defined as 100% and the concentration of the compound when production of 20-HETE was inhibited to an extent of 50% upon addition of a compound (IC50 value) was calculated.

Compound: CCN1CCN(c2ccc(N/C=N/O)cc2C)CC1 [Compound 76]
- IC50: 0.186 µM
